Test results published in US9247740B2, “Isoxazoline derivatives as insecticidal compounds” (Syngenta Participations AG, priority 2011, dated 2016).
Some entries share one result that the patent states for a list of compounds. At least one compound was matched to its structure with a doubt left.

Experiments:
Format in all cases: in vivo
[1] = system: Diabrotica balteata (Corn Root Worm); experiment: Diabrotica balteata larval test on artificial diet; conditions: 200 ppm (concentration in well 18 ppm), L2 larvae, larval mortality and growth regulation after 5 days
Description: (§1) This Example illustrates the insecticidal and acaricidal properties of compounds of formula (I).

[2] = system: Spodoptera littoralis (Egyptian Cotton Leafworm); experiment: Spodoptera littoralis leaf disc spray test; conditions: 200 ppm spray on cotton leaf discs; mortality, feeding behavior, growth regulation 3 days after treatment
Procedure: This Example illustrates the insecticidal and acaricidal properties of compounds of formula (I). Tests were performed as follows:

[3] = system: Heliothis virescens (Tobacco Budworm); experiment: Heliothis virescens egg test on artificial diet; conditions: 200 ppm (concentration in well 18 ppm), eggs 0-24 h old on artificial diet; egg mortality, larval mortality, growth regulation after 4 days
Description: as §1

[4] = system: Myzus persicae (Green Peach Aphid); experiment: Myzus persicae sachet test, mixed population; conditions: 12.5 ppm in sucrose solution (sachet), mortality 5 days after infestation
[5] = system: Plutella xylostella (Diamond Back Moth); experiment: Plutella xylostella larval test on artificial diet; conditions: 200 ppm (concentration in well 18 ppm), L2 larvae, larval mortality and growth regulation after 6 days
Description: as §1

[6] = system: Thrips tabaci (Onion Thrips); experiment: Thrips tabaci leaf disc spray test; conditions: 200 ppm spray on sunflower leaf discs, mixed ages; mortality after 7 days
Description: as §1

[7] = system: Nilaparvata lugens (Brown Plant Hopper); experiment: Nilaparvata lugens larvicide, feeding/contact on rice seedlings; conditions: 200 ppm spray on rice seedlings, N3 nymphs; mortality 6-12 days after treatment
[8] = system: Tetranychus urticae (Two-Spotted Spider Mite); experiment: Tetranychus urticae leaf disc spray test; conditions: 200 ppm spray on bean leaf discs, mixed ages; egg, larval and adult mortality 8 days later
Description: as §1

Cc1cc(C2=NOC(c3cc(C(F)(F)F)cc(C(F)(F)F)c3)(C(F)(F)F)C2)ccc1C(=O)NC1CSC1 (centres unmarked) [Compound A002]
at least 80%: control of Diabrotica balteata [1] | control of Spodoptera littoralis [2] | control of Heliothis virescens [3] | control of Myzus persicae [4] | control of Plutella xylostella [5] | control of Thrips tabaci [6] | control of Nilaparvata lugens [7] | control of Tetranychus urticae [8]

Cc1cc(C2=NOC(c3cc(Cl)cc(C(F)(F)F)c3)(C(F)(F)F)C2)ccc1C(=O)NC1C[S+]([O-])C1 (centres unmarked) [Compound A064]
at least 80%: control of Diabrotica balteata [1] | control of Spodoptera littoralis [2] | control of Heliothis virescens [3] | control of Myzus persicae [4] | control of Plutella xylostella [5] | control of Thrips tabaci [6] | control of Nilaparvata lugens [7] | control of Tetranychus urticae [8]

Cc1cc(C2=NOC(c3cc(Cl)c(Br)c(Cl)c3)(C(F)(F)F)C2)ccc1C(=O)NC1CSC1 (centres unmarked) [Compound A088]
at least 80%: control of Diabrotica balteata [1] | control of Spodoptera littoralis [2] | control of Heliothis virescens [3] | control of Myzus persicae [4] | control of Plutella xylostella [5] | control of Thrips tabaci [6] | control of Nilaparvata lugens [7] | control of Tetranychus urticae [8]

Cc1cc(C2=NOC(c3cc(Cl)c(Br)c(Cl)c3)(C(F)(F)F)C2)ccc1C(=O)NC1CS(=O)(=O)C1 (centres unmarked) [Compound A089]
at least 80%: control of Diabrotica balteata [1] | control of Spodoptera littoralis [2] | control of Heliothis virescens [3] | control of Myzus persicae [4] | control of Plutella xylostella [5] | control of Thrips tabaci [6] | control of Tetranychus urticae [8]

Cc1cc(C2=NOC(c3cc(Cl)c(Br)c(Cl)c3)(C(F)(F)F)C2)ccc1C(=O)NC1C[S+]([O-])C1 (centres unmarked) [Compound A090]
at least 80%: control of Diabrotica balteata [1] | control of Spodoptera littoralis [2] | control of Heliothis virescens [3] | control of Myzus persicae [4] | control of Plutella xylostella [5] | control of Thrips tabaci [6] | control of Nilaparvata lugens [7] | control of Tetranychus urticae [8]

Cc1cc(C2=NOC(c3cc(Cl)c(Cl)c(Cl)c3)(C(F)(F)F)C2)ccc1C(=O)NC1CS(=O)(=O)C1 (centres unmarked) [Compound A122]
at least 80%: control of Diabrotica balteata [1] | control of Spodoptera littoralis [2] | control of Heliothis virescens [3] | control of Myzus persicae [4] | control of Plutella xylostella [5] | control of Thrips tabaci [6] | control of Tetranychus urticae [8]

Cc1cc(C2=NOC(c3cc(Cl)c(Cl)c(Cl)c3)(C(F)(F)F)C2)ccc1C(=O)NC1C[S+]([O-])C1 (centres unmarked) [Compound A124]
at least 80%: control of Diabrotica balteata [1] | control of Spodoptera littoralis [2] | control of Heliothis virescens [3] | control of Myzus persicae [4] | control of Plutella xylostella [5] | control of Thrips tabaci [6] | control of Nilaparvata lugens [7] | control of Tetranychus urticae [8]

Cc1cc(C2=NOC(c3cc(Cl)cc(Cl)c3)(C(F)(F)F)C2)ccc1C(=O)NCCC1C[S+]([O-])C1 (centres unmarked) [Compound A178]
at least 80%: control of Diabrotica balteata [1] | control of Spodoptera littoralis [2] | control of Heliothis virescens [3] | control of Myzus persicae [4] | control of Plutella xylostella [5] | control of Thrips tabaci [6] | control of Tetranychus urticae [8]

Cc1cc(C2=NOC(c3cc(Cl)cc(Cl)c3)(C(F)(F)F)C2)ccc1C(=O)NC1CC(=NOCC(F)(F)F)C1 (centres unmarked) [Compound A218]
at least 80%: control of Diabrotica balteata [1] | control of Spodoptera littoralis [2] | control of Heliothis virescens [3] | control of Myzus persicae [4] | control of Plutella xylostella [5] | control of Thrips tabaci [6] | control of Tetranychus urticae [8]

O=C(NC1CSC1)c1ccc(C2=NOC(c3cc(Cl)cc(Cl)c3)(C(F)(F)F)C2)cc1C(F)(F)F (centres unmarked) [Compound B04]
at least 80%: control of Diabrotica balteata [1] | control of Spodoptera littoralis [2] | control of Heliothis virescens [3] | control of Plutella xylostella [5] | control of Thrips tabaci [6] | control of Nilaparvata lugens [7] | control of Tetranychus urticae [8]

O=C(NC1C[S+]([O-])C1)c1ccc(C2=NOC(c3cc(Cl)cc(Cl)c3)(C(F)(F)F)C2)cc1F (centres unmarked) [Compound B15]
at least 80%: control of Diabrotica balteata [1] | control of Spodoptera littoralis [2] | control of Heliothis virescens [3] | control of Myzus persicae [4] | control of Plutella xylostella [5] | control of Thrips tabaci [6] | control of Tetranychus urticae [8]

O=C(NC1CSC1)c1ccc(C2=NOC(c3cc(Cl)cc(Cl)c3)(C(F)(F)F)C2)cc1F (centres unmarked) [Compound B16]
at least 80%: control of Diabrotica balteata [1] | control of Spodoptera littoralis [2] | control of Heliothis virescens [3] | control of Myzus persicae [4] | control of Plutella xylostella [5] | control of Thrips tabaci [6] | control of Tetranychus urticae [8]

Cc1cc(C2=NOC(c3cc(Cl)cc(Cl)c3)(C(F)(F)F)C2)ncc1C(=O)NC1CS(=O)(=O)C1 (centres unmarked) [Compound B44]
at least 80%: control of Diabrotica balteata [1] | control of Spodoptera littoralis [2] | control of Heliothis virescens [3] | control of Plutella xylostella [5] | control of Thrips tabaci [6] | control of Tetranychus urticae [8]

Cc1cc(C2=NOC(c3cc(Cl)cc(Cl)c3)(C(F)(F)F)C2)ncc1C(=O)NC1(C)CSC1 (centres unmarked) [Compound B45]
at least 80%: control of Diabrotica balteata [1] | control of Spodoptera littoralis [2] | control of Heliothis virescens [3] | control of Plutella xylostella [5] | control of Thrips tabaci [6] | control of Tetranychus urticae [8]

Cc1cc(C2=NOC(c3cc(Cl)cc(Cl)c3)(C(F)(F)F)C2)ncc1C(=O)NC1CSC1 (centres unmarked) [Compound B46]
at least 80%: control of Diabrotica balteata [1] | control of Spodoptera littoralis [2] | control of Heliothis virescens [3] | control of Plutella xylostella [5] | control of Thrips tabaci [6] | control of Tetranychus urticae [8]

O=C(NC1CS(=O)(=O)C1)c1ccc(C2=NOC(c3cc(Cl)cc(Cl)c3)(C(F)(F)F)C2)cc1 (centres unmarked) [Compound B59]
at least 80%: control of Diabrotica balteata [1] | control of Spodoptera littoralis [2] | control of Heliothis virescens [3] | control of Plutella xylostella [5] | control of Thrips tabaci [6] | control of Tetranychus urticae [8]

O=C(NC1CSC1)c1ccc(C2=NOC(c3cc(Cl)cc(Cl)c3)(C(F)(F)F)C2)cc1 (centres unmarked) [Compound B61]
at least 80%: control of Diabrotica balteata [1] | control of Spodoptera littoralis [2] | control of Heliothis virescens [3] | control of Plutella xylostella [5] | control of Thrips tabaci [6] | control of Tetranychus urticae [8]

CSCc1cc(C2=NOC(c3cc(Cl)cc(Cl)c3)(C(F)(F)F)C2)ccc1C(=O)NC1CS(=O)(=O)C1 (centres unmarked) [Compound B63]
at least 80%: control of Diabrotica balteata [1] | control of Spodoptera littoralis [2] | control of Heliothis virescens [3] | control of Plutella xylostella [5] | control of Thrips tabaci [6] | control of Tetranychus urticae [8]

O=C(NC1CS(=O)(=O)C1)c1ccc(C2=NOC(c3cc(Cl)cc(Cl)c3)(C(F)(F)F)C2)cc1CO (centres unmarked) [Compound B68]
at least 80%: control of Diabrotica balteata [1] | control of Spodoptera littoralis [2] | control of Heliothis virescens [3] | control of Plutella xylostella [5] | control of Thrips tabaci [6] | control of Tetranychus urticae [8]

Cc1cc(C2=NOC(c3cc(Cl)cc(Cl)c3)(C(F)(F)F)C2)ccc1C(=O)NC1(C(F)(F)F)CSC1 (centres unmarked) [Compound C14, 4-[5-(3,5-dichlorophenyl)-5-(trifluoromethyl)-4H-isoxazol-3-yl]-2-methyl-N[3-(trifluoromethyl)thietan-3-yl]benzamide]
at least 80%: control of Diabrotica balteata [1] | control of Spodoptera littoralis [2] | control of Heliothis virescens [3] | control of Plutella xylostella [5] | control of Thrips tabaci [6] | control of Tetranychus urticae [8]
